{"source": "the supplement of paper PMC12889115", "test_system": "Salmonella enterica serovar Typhimurium SL1344", "assay": "bacterial growth OD600 after 18 h with compound and polymyxin B; higher = more bacterial growth (less inhibition)", "settings": "50 µM, Mueller-Hinton broth", "note": "The other results are listed elsewhere or left out. Values are raw readings; no control value is given beside them.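 Primary screen: polymyxin B was added at a level permeabilizing Salmonella outer membranes while sparing inner membranes. DMSO wells, both with and without polymyxin B, established maximum growth. Plate-to-plate variation meant each plate was ranked on its own, and the lowest-OD600 compounds were selected as hits.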", "data": [{"compound": "COCCCN1C(=O)CC(CC(=O)N(C)Cc2nonc2C)(c2ccccc2Cl)C1=O", "note": "(stereo unspecified)", "values": [{"measurement": "bacterial growth OD600", "setting": "polymyxin B 0.75 µg/mL", "result": 0.768}]}, {"compound": "CCOc1ccc(CN2CCN(Cc3ccc4nonc4c3)CC2CCO)cc1", "note": "(stereo unspecified)", "values": [{"measurement": "bacterial growth OD600", "setting": "polymyxin B 1 µg/mL", "result": 0.939}]}, {"compound": "O=C(CC(c1ccccc1)c1ccccc1Cl)N1CCC(CO)CC1", "note": "(stereo unspecified)", "values": [{"measurement": "bacterial growth OD600", "setting": "polymyxin B 1 µg/mL", "result": 0.69}]}, {"compound": "CCn1ccnc1CN1CCCC(CNC(=O)c2cccc(C(F)(F)F)c2)C1", "note": "(stereo unspecified)", "values": [{"measurement": "bacterial growth OD600", "setting": "polymyxin B 0.75 µg/mL", "result": 0.831}]}, {"compound": "COC(=O)c1cc(CNC(=O)Cc2c(F)cccc2Cl)cc(NC(=O)c2ccco2)c1", "values": [{"measurement": "bacterial growth OD600", "setting": "polymyxin B 0.75 µg/mL", "result": 0.813}]}, {"compound": "COc1ccc(S(=O)(=O)N2CCCC(CNC(=O)c3ccco3)C2)c(OC)c1", "note": "(stereo unspecified)", "values": [{"measurement": "bacterial growth OD600", "setting": "polymyxin B 0.75 µg/mL", "result": 0.884}]}, {"compound": "CC(Oc1ccccc1)C(=O)N1CCC(CCC(=O)Nc2ccccc2)CC1", "note": "(stereo unspecified)", "values": [{"measurement": "bacterial growth OD600", "setting": "polymyxin B 1 µg/mL", "result": 0.926}]}, {"compound": "COc1ccc(C(=O)N(C)CC2CCCN(CCc3ccccc3OC)C2)cc1", "note": "(stereo unspecified)", "values": [{"measurement": "bacterial growth OD600", "setting": "polymyxin B 1 µg/mL", "result": 0.725}]}, {"compound": "CN(C)c1ncccc1CNC(=O)CN1CCOc2ccccc2C1", "values": [{"measurement": "bacterial growth OD600", "setting": "polymyxin B 1 µg/mL", "result": 0.858}]}, {"compound": "Cn1nccc1C(=O)N1CCCC1C(=O)Nc1cccc(-n2cccn2)c1", "note": "(stereo unspecified)", "values": [{"measurement": "bacterial growth OD600", "setting": "polymyxin B 1 µg/mL", "result": 0.947}]}, {"compound": "CC(c1ccc2c(c1)OCCO2)N(C)C(=O)c1cc(COc2ccccc2)[nH]n1", "note": "(stereo unspecified)", "values": [{"measurement": "bacterial growth OD600", "setting": "polymyxin B 1 µg/mL", "result": 0.652}]}, {"compound": "CSc1cccc(NC(=O)N2CCC(CCC(=O)Nc3ccccc3)CC2)c1", "values": [{"measurement": "bacterial growth OD600", "setting": "polymyxin B 1 µg/mL", "result": 0.905}]}, {"compound": "COc1cccc(-c2ccc(NC(=O)C3CCCN(C(=O)c4c[nH]nc4C)C3)cc2)c1", "note": "(stereo unspecified)", "values": [{"measurement": "bacterial growth OD600", "setting": "polymyxin B 1 µg/mL", "result": 0.942}]}, {"compound": "CC(=O)N1CCC(NC(C)c2cnn(-c3ccc(F)cc3F)c2C)CC1", "note": "(stereo unspecified)", "values": [{"measurement": "bacterial growth OD600", "setting": "polymyxin B 1 µg/mL", "result": 1.18}]}, {"compound": "COC(=O)C1CCCCN1Cc1nc(-c2ccc(C)cc2)oc1C", "note": "(stereo unspecified)", "values": [{"measurement": "bacterial growth OD600", "setting": "polymyxin B 0.75 µg/mL", "result": 0.96}]}, {"compound": "c1ccc(CCC2CN(Cc3ccc4nonc4c3)CCO2)cc1", "note": "(stereo unspecified)", "values": [{"measurement": "bacterial growth OD600", "setting": "polymyxin B 0.75 µg/mL", "result": 0.004}]}, {"compound": "COc1cccc(CCC2CCCN(C(=O)c3ccoc3C)C2)c1", "note": "(stereo unspecified)", "values": [{"measurement": "bacterial growth OD600", "setting": "polymyxin B 0.75 µg/mL", "result": 0.092}]}, {"compound": "COc1ccc(F)c(-c2nc(CN(C)Cc3cccc4ncccc34)c(C)o2)c1", "values": [{"measurement": "bacterial growth OD600", "setting": "polymyxin B 1 µg/mL", "result": 0.671}]}, {"compound": "COc1ccccc1CN1CCN(Cc2ccc(OC)c(C)c2C)C(CCO)C1", "note": "(stereo unspecified)", "values": [{"measurement": "bacterial growth OD600", "setting": "polymyxin B 1 µg/mL", "result": 0.828}]}, {"compound": "CCN(CCn1cccn1)C(=O)c1ccc(OC2CCN(C(=O)CCOC)CC2)cc1", "values": [{"measurement": "bacterial growth OD600", "setting": "polymyxin B 1 µg/mL", "result": 0.771}]}, {"compound": "Cc1ccsc1C(=O)NCC1Cc2cc(F)cc(-c3ccccn3)c2O1", "note": "(stereo unspecified)", "values": [{"measurement": "bacterial growth OD600", "setting": "polymyxin B 0.75 µg/mL", "result": 0.564}]}]}
